In patent US20080070237A1, “Npas3 Mutant Mice and Uses for Screening and Testing Therapies for Schizophrenia and Related Neurological Disorders” (priority 2003, published 2008):
At least one structure is not confirmed: it was looked up by name or label, or the drawing left a doubt.

Columns and labels:
Npas3−/− mice = type: in vivo, mouse; details: 0.3 mg/kg subcutaneous, post-challenge activity measured for three hours
Method: (§1) Locomotor Activity Tests. For all locomotor experiments, activity is measured in a 41×41×30 cm Omnitech Digiscan activity monitor equipped with 16 pairs of photodetector-LED beams along the x and y axis. (Accuscan Electronics, Columbus, Ohio). […] After the acclimation period, Baseline Locomoter Activity Test results are recorded for each test mouse. Subsequently, locomotor activity is tested following pharmacological challenges of three neurotransmitter pathways involved in schizophrenia and other neurological disorders. The pathways and the drugs used to challenge each include:
(§2) a. Methamphetamine (a dopamine pathway agonist) 1.0 mg/kg in the form of D-methamphetamine-HCL (Sigma; St. Louis, Mo.). Methamphetamine is a strong dopamine agonist that will activate D1 and D2 receptor signaling.
(§3) b. Haloperidol (a dopamine pathway antagonist) 0.3 mg/kg or 1.0 mg/kg (Tocris; Ellisville, Mo.).
(§4) The test drug is 0.3 mg/kg clozapine (Sigma; St. Louis, Mo.). […]
(§5) Each drug is administered in a subcutaneous injection volume of 5 mL/kg body weight. Post-challenge activity is measured for three hours. Horizontal activity counts (scored by visual observance or breaking a light beam) and total distance are recorded during the pre- and post-challenge periods at 3-minute intervals with VersaMax software. […] All values are expressed as mean±SEM. […]

Npas3+/+ control mice = type: in vivo, mouse; details: 0.3 mg/kg subcutaneous, post-challenge activity measured for three hours
Method: as §1, §2, §3, §4, §5

CN1CCN(C2=Nc3cc(Cl)ccc3Nc3ccccc32)CC1 [clozapine]
horizontal locomotor activity after drug challenge (Npas3−/− mice): ineffective at attenuating the motor behavior | horizontal locomotor activity after drug challenge (Npas3+/+ control mice): significantly reduces the motor activity
